Experimental data: publication PMC12097018
These are yes or no findings as the source states them, for the method shown. Binding seen in cells or lysates may run through a third protein. A yes stands for co-enrichment or nearness to the bait. Other partners may have been found. Where a sequence is shown, tags or fusion partners need not be part of it.

Chains of the proteins cited; added tags and fusions are not shown.
UniProt Q09472: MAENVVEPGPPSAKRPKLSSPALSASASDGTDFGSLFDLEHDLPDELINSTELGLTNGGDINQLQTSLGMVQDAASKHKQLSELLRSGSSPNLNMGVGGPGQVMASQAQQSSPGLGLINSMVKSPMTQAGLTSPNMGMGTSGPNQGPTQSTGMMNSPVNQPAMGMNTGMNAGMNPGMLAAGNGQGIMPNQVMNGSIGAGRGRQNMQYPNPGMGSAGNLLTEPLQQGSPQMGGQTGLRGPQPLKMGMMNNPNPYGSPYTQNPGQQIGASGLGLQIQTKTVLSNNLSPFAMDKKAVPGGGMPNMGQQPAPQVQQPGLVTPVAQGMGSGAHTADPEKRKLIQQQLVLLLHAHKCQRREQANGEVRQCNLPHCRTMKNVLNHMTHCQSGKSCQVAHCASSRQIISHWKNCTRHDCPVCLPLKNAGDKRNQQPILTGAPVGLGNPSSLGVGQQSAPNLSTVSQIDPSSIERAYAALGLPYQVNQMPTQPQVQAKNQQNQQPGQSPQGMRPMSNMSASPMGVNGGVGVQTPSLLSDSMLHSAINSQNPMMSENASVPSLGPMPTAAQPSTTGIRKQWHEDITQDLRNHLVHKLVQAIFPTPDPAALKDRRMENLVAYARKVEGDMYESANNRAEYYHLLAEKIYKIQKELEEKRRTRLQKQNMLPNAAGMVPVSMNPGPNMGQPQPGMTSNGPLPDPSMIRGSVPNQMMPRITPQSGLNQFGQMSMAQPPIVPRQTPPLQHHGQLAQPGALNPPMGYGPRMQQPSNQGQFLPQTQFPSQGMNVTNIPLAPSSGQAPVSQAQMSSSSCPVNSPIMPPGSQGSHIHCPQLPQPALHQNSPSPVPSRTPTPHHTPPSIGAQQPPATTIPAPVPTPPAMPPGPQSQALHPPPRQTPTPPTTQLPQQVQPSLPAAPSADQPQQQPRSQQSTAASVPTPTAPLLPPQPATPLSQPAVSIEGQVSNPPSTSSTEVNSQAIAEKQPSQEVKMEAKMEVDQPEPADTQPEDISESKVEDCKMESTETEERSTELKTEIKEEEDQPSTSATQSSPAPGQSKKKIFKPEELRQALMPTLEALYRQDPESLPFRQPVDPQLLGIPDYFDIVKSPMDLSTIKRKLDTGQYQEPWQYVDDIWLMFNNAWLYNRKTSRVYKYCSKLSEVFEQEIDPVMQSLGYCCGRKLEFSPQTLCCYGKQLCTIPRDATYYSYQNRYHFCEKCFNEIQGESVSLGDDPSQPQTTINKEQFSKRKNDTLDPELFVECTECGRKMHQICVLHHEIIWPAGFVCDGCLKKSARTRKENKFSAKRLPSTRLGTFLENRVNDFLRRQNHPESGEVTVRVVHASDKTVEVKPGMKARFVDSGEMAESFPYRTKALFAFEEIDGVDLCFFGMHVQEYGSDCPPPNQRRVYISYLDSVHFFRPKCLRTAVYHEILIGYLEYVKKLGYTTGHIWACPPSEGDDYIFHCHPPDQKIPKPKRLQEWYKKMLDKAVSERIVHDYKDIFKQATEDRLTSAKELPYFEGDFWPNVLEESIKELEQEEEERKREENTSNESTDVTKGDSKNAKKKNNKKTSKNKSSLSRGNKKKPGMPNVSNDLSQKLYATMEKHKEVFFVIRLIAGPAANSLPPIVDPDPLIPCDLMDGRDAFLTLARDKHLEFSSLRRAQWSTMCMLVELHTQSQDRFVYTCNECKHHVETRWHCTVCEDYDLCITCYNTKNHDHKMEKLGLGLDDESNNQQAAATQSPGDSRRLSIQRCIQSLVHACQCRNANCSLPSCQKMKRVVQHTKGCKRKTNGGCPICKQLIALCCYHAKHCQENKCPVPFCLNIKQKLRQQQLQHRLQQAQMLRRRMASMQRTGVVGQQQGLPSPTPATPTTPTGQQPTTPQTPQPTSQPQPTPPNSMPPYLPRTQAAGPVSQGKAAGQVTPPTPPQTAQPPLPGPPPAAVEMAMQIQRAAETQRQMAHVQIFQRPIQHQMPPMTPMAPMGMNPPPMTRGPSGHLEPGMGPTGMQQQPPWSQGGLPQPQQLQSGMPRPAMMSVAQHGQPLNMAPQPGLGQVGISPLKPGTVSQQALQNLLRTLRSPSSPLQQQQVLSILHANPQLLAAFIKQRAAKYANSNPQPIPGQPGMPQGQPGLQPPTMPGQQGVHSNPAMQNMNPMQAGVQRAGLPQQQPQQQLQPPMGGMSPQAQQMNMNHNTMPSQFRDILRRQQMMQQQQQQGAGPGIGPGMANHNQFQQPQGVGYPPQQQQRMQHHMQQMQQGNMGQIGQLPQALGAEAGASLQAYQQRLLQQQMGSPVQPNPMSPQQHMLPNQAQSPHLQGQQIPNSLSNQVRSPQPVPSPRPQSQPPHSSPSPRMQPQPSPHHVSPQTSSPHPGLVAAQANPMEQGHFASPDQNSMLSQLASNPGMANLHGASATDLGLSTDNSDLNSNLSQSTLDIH
UniProt Q92793: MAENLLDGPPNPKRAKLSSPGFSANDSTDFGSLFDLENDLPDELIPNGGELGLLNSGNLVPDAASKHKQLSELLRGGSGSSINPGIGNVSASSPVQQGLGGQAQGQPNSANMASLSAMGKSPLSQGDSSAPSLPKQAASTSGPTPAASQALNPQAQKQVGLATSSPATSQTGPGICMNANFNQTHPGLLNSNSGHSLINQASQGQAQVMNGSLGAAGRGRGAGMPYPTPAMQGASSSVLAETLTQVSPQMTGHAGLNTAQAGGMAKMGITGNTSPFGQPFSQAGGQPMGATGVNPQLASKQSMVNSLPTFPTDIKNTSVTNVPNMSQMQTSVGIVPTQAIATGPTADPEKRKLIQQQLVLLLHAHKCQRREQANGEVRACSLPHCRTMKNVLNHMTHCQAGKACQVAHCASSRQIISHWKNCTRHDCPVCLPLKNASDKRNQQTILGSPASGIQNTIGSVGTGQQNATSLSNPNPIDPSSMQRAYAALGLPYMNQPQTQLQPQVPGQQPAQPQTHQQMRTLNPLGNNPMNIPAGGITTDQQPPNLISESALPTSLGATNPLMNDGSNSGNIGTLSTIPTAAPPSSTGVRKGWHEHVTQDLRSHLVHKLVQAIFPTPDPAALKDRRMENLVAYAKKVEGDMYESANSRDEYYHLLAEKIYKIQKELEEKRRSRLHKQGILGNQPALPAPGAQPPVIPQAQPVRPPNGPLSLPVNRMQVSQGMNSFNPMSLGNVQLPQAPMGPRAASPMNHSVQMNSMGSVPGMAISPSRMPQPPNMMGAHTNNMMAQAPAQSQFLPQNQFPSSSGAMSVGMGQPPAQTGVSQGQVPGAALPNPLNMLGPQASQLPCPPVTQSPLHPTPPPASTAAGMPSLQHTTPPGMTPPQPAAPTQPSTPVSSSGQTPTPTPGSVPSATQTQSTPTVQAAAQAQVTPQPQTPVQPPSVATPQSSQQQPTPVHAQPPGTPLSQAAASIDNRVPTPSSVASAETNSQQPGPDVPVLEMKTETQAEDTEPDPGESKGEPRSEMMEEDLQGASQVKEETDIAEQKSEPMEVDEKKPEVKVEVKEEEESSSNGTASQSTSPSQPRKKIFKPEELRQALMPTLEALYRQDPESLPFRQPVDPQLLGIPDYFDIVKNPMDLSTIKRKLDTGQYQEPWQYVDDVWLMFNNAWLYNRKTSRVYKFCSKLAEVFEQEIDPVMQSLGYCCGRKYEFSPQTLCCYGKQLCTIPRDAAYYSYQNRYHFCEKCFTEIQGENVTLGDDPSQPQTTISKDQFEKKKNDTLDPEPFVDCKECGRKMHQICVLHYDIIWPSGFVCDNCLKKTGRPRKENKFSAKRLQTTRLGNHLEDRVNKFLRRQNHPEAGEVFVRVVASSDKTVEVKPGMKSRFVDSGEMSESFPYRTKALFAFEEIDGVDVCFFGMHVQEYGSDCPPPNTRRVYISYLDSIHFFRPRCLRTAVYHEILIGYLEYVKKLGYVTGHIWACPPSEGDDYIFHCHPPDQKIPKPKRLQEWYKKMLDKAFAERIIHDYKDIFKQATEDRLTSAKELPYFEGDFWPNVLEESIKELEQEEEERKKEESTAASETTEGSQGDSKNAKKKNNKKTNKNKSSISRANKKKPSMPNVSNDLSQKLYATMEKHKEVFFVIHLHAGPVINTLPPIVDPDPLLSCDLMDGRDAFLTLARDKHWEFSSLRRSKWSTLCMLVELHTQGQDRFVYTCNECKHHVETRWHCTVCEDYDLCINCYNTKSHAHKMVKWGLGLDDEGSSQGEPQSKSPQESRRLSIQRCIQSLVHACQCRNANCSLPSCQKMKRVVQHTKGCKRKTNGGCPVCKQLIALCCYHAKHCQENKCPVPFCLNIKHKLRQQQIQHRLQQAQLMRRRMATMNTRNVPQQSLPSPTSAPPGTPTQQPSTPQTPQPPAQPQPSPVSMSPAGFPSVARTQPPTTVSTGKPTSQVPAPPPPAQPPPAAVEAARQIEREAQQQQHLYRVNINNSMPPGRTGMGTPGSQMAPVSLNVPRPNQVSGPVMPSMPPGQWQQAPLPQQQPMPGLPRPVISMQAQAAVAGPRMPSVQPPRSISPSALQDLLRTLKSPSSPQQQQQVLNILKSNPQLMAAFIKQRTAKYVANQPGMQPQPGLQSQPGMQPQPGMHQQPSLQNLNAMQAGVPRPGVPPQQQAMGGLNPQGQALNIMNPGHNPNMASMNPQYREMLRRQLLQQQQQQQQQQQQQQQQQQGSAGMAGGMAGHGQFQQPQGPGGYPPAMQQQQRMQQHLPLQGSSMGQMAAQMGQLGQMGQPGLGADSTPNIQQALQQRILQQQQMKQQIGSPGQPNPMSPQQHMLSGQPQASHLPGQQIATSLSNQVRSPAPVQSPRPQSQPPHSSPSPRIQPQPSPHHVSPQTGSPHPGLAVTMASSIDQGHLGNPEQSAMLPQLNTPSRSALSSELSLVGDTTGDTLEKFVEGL

Biological target: T1, Hemagglutinin (HA) tagged SEI1 protein (HA‐SEI1) (human) (UniProt Q9UHV2)
T1 sequence: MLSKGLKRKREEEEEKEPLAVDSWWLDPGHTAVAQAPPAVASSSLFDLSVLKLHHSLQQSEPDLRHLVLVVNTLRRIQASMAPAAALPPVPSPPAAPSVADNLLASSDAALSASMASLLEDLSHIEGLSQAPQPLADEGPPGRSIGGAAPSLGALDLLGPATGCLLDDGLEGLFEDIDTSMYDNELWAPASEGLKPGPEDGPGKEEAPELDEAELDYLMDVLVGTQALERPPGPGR
Assay: affinity purification with mass spectrometry; lysate of IM-9 cells overexpressing HA-SEI1 immunoprecipitated with agarose-immobilized HA antibody at 4 °C overnight, six washes, nano-LC/MS/MS; IM-9 cells with empty vector as control

| Substance | binding |
| --- | --- |
| p300, endogenous in myeloma cells (from UniProt Q09472 1-2414) | binds |
| CREB‐binding protein (CBP), endogenous in IM-9 cells (from UniProt Q92793 1-2442) | binds |
